Experimental data reported in PubChem BioAssay AID1347075 (National Center for Advancing Translational Sciences (NCATS), 2019).
Hit rate of the full screen: of about 400,000 compounds, about 5,500 (1.4%) were called active. The shares of active, inactive and inconclusive entries below differ from those in the screen. The call rests on the fitted dose curve; in most records, active means well fitted cell-killing curve with a large enough effect; inconclusive means small, poorly fitted or top-dose-only effect, or effect the other way; inactive means flat fitted curve, though single readings scatter. Where the call is inconclusive, the potency comes from a doubtful curve fit.

Test: qHTS assay for MDR1-selective chemotherapeutics: Primary screen using the parental adenocarcinoma cell KB-3-1; further: nearly all actives have a fitted effect of over 60% in size
Settings: KB-3-1 viability, CellTiter-Glo ATP luminescence, 72 h; activity change, negative = cytotoxic: at 46.1 µM (top of the series)
Outline: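 Here the drug-naive KB-3-1 line serves as comparator for MDR sub-line selectivity; cells received compound titrations, 72 h at 37 °C, then CellTiter-Glo readout.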
On the % scale 0 is the no-effect control and ±100 the full control effect; potency means the concentration at half of the fitted maximal effect.

Row | SMILES | Potency | activity change, negative = cytotoxic
1 | CCC(=O)N/C=C/n1cnc2cc(C(F)(F)F)ccc21 | inconclusive: 32.6 µM [cytotoxic, partial curve, poor fit] | 
2 | Cc1ccc(-n2cnc3cc(C(=O)NCc4ccccc4Cl)ccc32)c(C)c1 | inactive | 
3 | O=C(O)C1SCCN1S(=O)(=O)c1ccc2ccccc2c1 (configuration not stated) | inactive | 
4 | CC1CCN(C(=O)COC(=O)C23CC4CC(CC(O)(C4)C2)C3)CC1 | inactive | 
5 | O=C(c1[nH]c(C(F)(F)F)nc1-c1ccccc1)N1CCN(c2cccc(C(F)(F)F)n2)CC1 | active: 5.17 µM | 
6 | OC[C@@H]1[C@@H](c2ccccc2)C(c2ccc(F)cc2)=NN1c1ccccc1 | inconclusive: 20.6 µM [cytotoxic, single point] | 
7 | Cc1cccc(Cn2cccc2CNS(=O)(=O)c2ccc(C)c(C)c2)c1 | inconclusive: 16.4 µM [cytotoxic, single point] | 
8 | Cc1noc(C)c1C(=O)Nc1nc(-c2cc(F)ccc2F)cs1 | inactive | 
9 | Cc1ccccc1-c1ocnc1C(=O)Nc1ccccc1NC(=O)c1ccccn1 | inactive | 
10 | CC1Cc2cc(S(=O)(=O)N3CCN(C)CC3)ccc2N1C(=O)C1CC1 (configuration not stated) | inactive | 
11 | Oc1ccc(Br)cc1-c1cc(-c2ccccc2Cl)[nH]n1 | inconclusive: 29.1 µM [cytotoxic, single point] | 
12 | OCC1(Cc2ccc(Cl)cc2)CCN(CC2CC=CCC2)CC1 (configuration not stated) | inconclusive: 14.6 µM [cytotoxic, partial curve, poor fit] | 
13 | COc1ccc(CCn2c(=O)c3cccnc3n(Cc3cccc([N+](=O)[O-])c3)c2=O)cc1OC | inconclusive: 29.1 µM [rising, single point] | 
14 | COc1ccccc1C(=O)Nc1ccc2c(c1)C(=O)NC2=O | inconclusive: 29.1 µM [rising, single point] | 
15 | COc1cccc(CNC(=O)CCS(=O)(=O)c2ccc3c(c2)NC(=O)CS3)c1 | inactive | 
16 | Cc1ccc2c(c1)NC(=O)C(CC(=O)Nc1ccc(CN3CCC(C)CC3)cc1)O2 (configuration not stated) | inconclusive: 29.1 µM [cytotoxic, single point] | 
17 | CC(C)(C)OC(=O)N[C@@H](Cc1ccccc1)c1nnc(S(=O)(=O)Cc2cccc(F)c2)o1 | active: 18.4 µM | 
18 | Cc1ccc(C)c(S(=O)(=O)NC(Cc2c[nH]c3ccccc23)C(=O)O)c1 (configuration not stated) | inconclusive: 29.1 µM [rising, single point] | 
19 | CC1(C)N=C(N)N=C(N)N1c1ccc(OCC(=O)N2CCOCC2)cc1 | inconclusive: 25.9 µM [cytotoxic, partial curve, poor fit] | 
20 | COc1ccc(N(CC(=O)NCCc2ccccc2)C(=O)c2csnn2)cc1 | inactive | 
21 | Cc1nc2ccn(Cc3cccs3)c(=O)c2cc1C(=O)N1CCN(c2ccccc2)CC1 | inactive | 
22 | Cc1cc(C(=O)N/N=C/c2ccc(C)o2)c2ccccc2n1 | active: 1.3 µM | 
23 | Cn1nc(-c2ccc(N3CCOCC3)c(NS(=O)(=O)c3ccc(Cl)cc3)c2)c2ccccc2c1=O | inconclusive: 23.1 µM [cytotoxic, single point] | 
24 | CN1CCN(c2ccc(NC(=O)COc3ccc(Cl)cc3Cl)cc2)CC1 | inconclusive: 18.4 µM [cytotoxic, single point] | 

Row | SMILES | Potency | activity change, negative = cytotoxic
25 | CCOC(=O)c1cc(-c2ccccc2)n(-c2cccc(C(=O)N(C)c3ccc(C)cc3)c2)c1C | active: 16.4 µM | 
26 | O=C(CC1C[C@H](C(=O)N2CCCCC2)[C@@]2(CCc3ccccc3)c3[nH]c4ccccc4c3CCN2C1=O)NCc1ccco1 (some centres not stated) | inactive | 
27 | Fc1ccc(N2CCN(Cc3cccn3-c3nnc(N4CCN(C5CCCCC5)CC4)s3)CC2)cc1 | inactive | 
28 | CCCCCCCCn1c(=O)c(C(=O)OC)c(N)c2ccccc21 | inconclusive: 29.1 µM [cytotoxic, single point] | 
29 | N#Cc1ccccc1NC(=O)COC(=O)/C=C/c1cn(-c2ccccc2)nc1-c1ccc(Cl)cc1 | active: 23.1 µM | 
30 | Cc1cc(C)c2c(-n3cccc3)c(C(=O)O)sc2n1 | inactive | 
31 | CC(OC(=O)Cc1n[nH]c(=O)c2ccccc12)C(=O)N(C)c1ccccc1 (configuration not stated) | inconclusive: 6.51 µM [rising, partial curve, poor fit] | 
32 | CCCC(NC(=O)C(C)N1CCN(S(=O)(=O)c2ccccc2)CC1)c1ccccc1 (configuration not stated) | inactive | 
33 | NC(=S)NN=Cc1nccc2c(C(F)(F)F)cccc12 | inconclusive: 29.1 µM [cytotoxic, single point] | 
34 | O=C(CNC1CCCCC1)Nc1cc(S(=O)(=O)N2CCOCC2)ccc1Cl | inactive | 
35 | COc1cc(NC2=CC(=O)CC(C)(C)C2)cc(OC)c1OC |  | inconclusive: 30.2%
36 | COC(=O)c1ccc(-c2nc3ccc(C)cc3o2)cc1 | inconclusive: 3.26 µM [cytotoxic, partial curve, poor fit] | 
37 | COCCNC(=O)/C(C#N)=C/c1ccc(O)c([N+](=O)[O-])c1 | inactive | 
38 | O=C(/C(=N/N=C/c1ccc(O)c(O)c1O)c1ccccc1)c1ccccc1 | inconclusive: 29.1 µM [cytotoxic, single point] | 
39 | COc1ccc(C(=O)C(CN2CCOCC2)c2ccccc2)cc1 (configuration not stated) | inconclusive: 13 µM [cytotoxic, partial curve, poor fit] | 
40 | Cc1cc(CN2CCCCC2C(=O)Nc2ccc(Oc3cccnc3)cc2)oc1C (configuration not stated) |  | inconclusive: -41%
41 | CCCSc1nc2sc3c(c2c(=O)n1-c1cccc(Br)c1)CC(C)(C)OC3 | inactive | 
42 | CCN1CCN(c2nc(-c3ccccc3)nc3ccccc23)CC1 | inconclusive: 18.4 µM [cytotoxic, single point] | 
43 | CCn1cc(Cl)c(C(=O)Nc2nccs2)n1 | inactive | 
44 | CCCc1cc(=O)[nH]c(SC(C)C(=O)N2c3ccccc3CC2C)n1 (configuration not stated) | inactive | 
45 | CCOC(=O)[C@]12CCC=C1N(Cc1ccc(Cl)cc1Cl)C(=O)[C@H](CC(=O)NCc1ccc(OC)c(OC)c1)C2 | active: 7.31 µM | 
46 | COc1cc(C#Cc2c(-c3cncn3C)n(C)c3ccc(-c4ccc5cc[nH]c5c4)cc23)cc(OC)c1 | inconclusive: 16.4 µM [cytotoxic, partial curve] | 
47 | CCOC(=O)c1ccc(NC(=O)CC2C(=O)N(c3ccc(F)cc3)C(=O)N2Cc2ccc(C)cc2)cc1 (configuration not stated) | inactive | 

A second format for 3 compounds above:
COc1cc(NC2=CC(=O)CC(C)(C)C2)cc(OC)c1OC
  activity change, negative = cytotoxic: inconclusive: 30.2%
COC(=O)c1ccc(-c2nc3ccc(C)cc3o2)cc1
  Potency: inconclusive: 3.26 µM [cytotoxic, partial curve, poor fit]
COCCNC(=O)/C(C#N)=C/c1ccc(O)c([N+](=O)[O-])c1
  Potency: inactive
